# Reference: EP0884054B9, “Fixed-dose association of an angiotensin-converting enzyme inhibitor and of a calcium channel antagonist for the treatment of cardiovascular illnesses” (Procter & Gamble Pharmaceuticals S.A.R.L., priority 1997, dated 1998)
# At least one compound was matched to its structure with a doubt left.
# Test system: rat experimentally hypertense by aortic coarctation
# Assay: Antihypertensive activity in the rat experimentally hypertense by aortic coarctation (conscious animal)
# Format: in vivo
# Conditions: oral administration, 3 mg/kg
# Method: The antihypertensive activity of the association of enalapril and nitrendipine was tested in comparison with each one of the isolated components in an experimental model of hypertension by arterial coarction in the rat. Measurement of the arterial pressure was carried out with the animal conscious. The doses tested were as follows: • Enalapril maleate 1 mg/kg (p.o.) • Nitrendipine 3 mg/kg (p.o.) • Enalapril maleate and Nitrendipine (1 and 3) mg/kg (p.o.) • Enalapril maleate and Nitrendipine (0.5 and 1.5) mg/kg (p.o.) The control group received the carrier (CMC Carboxymethylcellulose 1% en distilled water), the administration volume being […] (p.o.).
structure (smiles),measurement,value
"CCOC(=O)C1=C(C)NC(C)=C(C(=O)OC)C1c1cccc([N+](=O)[O-])c1 (racemic) [Nitrendipine, ethyl and methyl ester of the acid 1,4-dihydro-2,6-dimethyl-4-(3-nitrophenyl)-3,5-pyridindicarboxylic]",antihypertensive effect,"very marked antihypertensive effect, though not a very sustained one"
